{
  "source": "patent US20100297262A1",
  "about": "“[…] ACTIVE COMPOSITIONS COMPRISING OXIDATIVE STRESS MODULATORS (OSM), NEW CHEMICAL […], COMPOSITIONS AND USES” (COLBY PHARMACEUTICAL COMPANY, priority 2009, published 2010)",
  "key": {"[1]": {"test_system": "LNCaP cells", "experiment": "DNA (Hoechst 33258) fluorescence cell growth assay, Example 12", "type": "cell-based, human", "details": "for sensitivity to growth inhibition by SAHA: pretreatment with 20 μM Vitamin E"}, "[2]": {"test_system": "LNCaP cells", "experiment": "LC-MS estimation of intracellular SAHA concentration", "details": "pretreated with 1 nM R1881; 5 μM SAHA, within 24 hours"}, "[3]": {"test_system": "PC-3 cells", "experiment": "DNA fluorescence cell growth assay", "details": "pretreatment with 20 μM Vitamin E"}},
  "data": [
    {"smiles": "O=C(CCCCCCC(=O)Nc1ccccc1)NO", "note": "[SAHA, Suberoylanilide hydroxamic acid]", "values": [
      {"measurement": "IC50", "setting": "[1]; Homo sapiens, LNCaP, read-out: IC50 of LNCaP cell growth inhibition", "result": "< 1000", "unit": "nM"},
      {"measurement": "sensitivity to growth inhibition by SAHA", "setting": "[1]; androgen-treated LNCaP", "result": "markedly sensitive to growth inhibition"},
      {"measurement": "sensitivity to growth inhibition by SAHA", "setting": "[1]; androgen-untreated LNCaP", "result": "markedly sensitive to growth inhibition"},
      {"measurement": "intracellular SAHA level relative to R1881 untreated cells", "setting": "[2]", "result": "less than half and half"},
      {"measurement": "sensitivity to growth inhibition by SAHA", "setting": "[3]", "result": "markedly sensitive to growth inhibition"}
    ]}
  ]
}
